Measurements reported in PubChem BioAssay AID686938 (Drosophila RNAi Screening Center, 2013)
The screen tested about 23,000 reagents; below is an unselected part of those that have a named target and a result. Of all reagents, 75 (0.33%) got an active call. 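Raw plate signals without normalisation; calls rest on plate z-scores that were not deposited; ratio present for only 364 wells.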 The numbers tell different reagents against one gene apart. Names joined by + are all predicted targets of the reagent. Reagent sequences are not shown. Not stated in the record: the dose of the treatment.

- Assay: 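Fly genes required for calcium entry once internal stores are emptied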 (primary screen)
- System: Drosophila S2R+ cells
- Knock-down reagent: long dsRNA against Drosophila genes, about 0.25 µg dsRNA per well, roughly 10,000 cells
- Time to read-out: 5 days of knock-down before the calcium assay
- Challenge: thapsigargin (SERCA pump blocker) to empty calcium stores; entry signal taken 4 min after adding it
- Read-out: 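Per-well fluo-4 fluorescence in two replicates, unnormalised, measured in resting cells and 4 min after store depletion by the SERCA blocker thapsigargin; ratio of the two present in few wells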
- Direction: calcium entry signal: higher = stronger calcium signal after store depletion; resting calcium signal: higher = higher resting calcium signal
- Units: calcium entry signal in fluorescence units; resting calcium signal in fluorescence units
- Active means: 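Called when the plate z-score of the entry-to-rest ratio, mean of duplicates, falls below −3; wells with low overall dye signal (Fmax z below −2) or more than five off-targets excluded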
- Meaning of the calls: active = strongly reduced calcium entry; inactive = no strong reduction

Dgkepsilon gave calcium entry signal, replicate 1 = 4.81e7; calcium entry signal, replicate 2 = 4.46e7; resting calcium signal, replicate 1 = 2.02e7; resting calcium signal, replicate 2 = 2.00e7; inactive. After knock-down of CR32011 + CR32010 + PlexB + 1 more, the screen gave calcium entry signal, replicate 1 = 3.70e7; calcium entry signal, replicate 2 = 4.24e7; resting calcium signal, replicate 1 = 2.19e7; resting calcium signal, replicate 2 = 1.99e7; inactive. Nup214 scored calcium entry signal, replicate 1 = 3.76e7; resting calcium signal, replicate 1 = 1.98e7; inactive. After knock-down of CG17375, the record shows calcium entry signal, replicate 1 = 3.22e7; calcium entry signal, replicate 2 = 3.12e7; resting calcium signal, replicate 1 = 1.67e7; resting calcium signal, replicate 2 = 1.55e7; inactive. Knock-down of CG13064 resulted in: calcium entry signal, replicate 1 = 3.11e7; calcium entry signal, replicate 2 = 5.73e7; resting calcium signal, replicate 1 = 1.51e7; resting calcium signal, replicate 2 = 2.38e7; inactive. Against CG34324 #1 the deposit lists calcium entry signal, replicate 1 = 3.89e7; calcium entry signal, replicate 2 = 5.35e7; resting calcium signal, replicate 1 = 1.98e7; resting calcium signal, replicate 2 = 2.57e7; inactive.

Against CG34324 #2, the values are calcium entry signal, replicate 1 = 3.80e7; calcium entry signal, replicate 2 = 3.65e7; resting calcium signal, replicate 1 = 1.80e7; resting calcium signal, replicate 2 = 1.68e7; inactive. With knock-down of CG8292, the screen gave calcium entry signal, replicate 1 = 2.98e7; calcium entry signal, replicate 2 = 4.87e7; resting calcium signal, replicate 1 = 1.49e7; resting calcium signal, replicate 2 = 2.09e7; inactive. With knock-down of CG30148 the results were calcium entry signal, replicate 1 = 3.52e7; calcium entry signal, replicate 2 = 3.46e7; resting calcium signal, replicate 1 = 1.85e7; resting calcium signal, replicate 2 = 1.65e7; inactive. Taf3 gave calcium entry signal, replicate 1 = 2.14e7; calcium entry signal, replicate 2 = 3.38e7; resting calcium signal, replicate 1 = 1.13e7; resting calcium signal, replicate 2 = 1.59e7; inactive. Silencing of btd came out at: calcium entry signal, replicate 1 = 4.04e7; calcium entry signal, replicate 2 = 4.72e7; resting calcium signal, replicate 1 = 2.01e7; resting calcium signal, replicate 2 = 2.23e7; inactive. CG17108 #1 scored calcium entry signal, replicate 1 = 3.31e7; calcium entry signal, replicate 2 = 3.56e7; resting calcium signal, replicate 1 = 1.45e7; resting calcium signal, replicate 2 = 1.85e7; inactive.

CG17108 #2 gave calcium entry signal, replicate 1 = 4.52e7; calcium entry signal, replicate 2 = 6.53e7; resting calcium signal, replicate 1 = 2.16e7; resting calcium signal, replicate 2 = 3.33e7; inactive.
